No constants are given. Whether binding was seen depends on the method and setting. In cells and extracts the contact can be indirect.

For assay [1], the target named is T1, P2X4 receptor (mouse (endogenous in mouse bladder)) (UniProt Q9JJX6).
T1 sequence: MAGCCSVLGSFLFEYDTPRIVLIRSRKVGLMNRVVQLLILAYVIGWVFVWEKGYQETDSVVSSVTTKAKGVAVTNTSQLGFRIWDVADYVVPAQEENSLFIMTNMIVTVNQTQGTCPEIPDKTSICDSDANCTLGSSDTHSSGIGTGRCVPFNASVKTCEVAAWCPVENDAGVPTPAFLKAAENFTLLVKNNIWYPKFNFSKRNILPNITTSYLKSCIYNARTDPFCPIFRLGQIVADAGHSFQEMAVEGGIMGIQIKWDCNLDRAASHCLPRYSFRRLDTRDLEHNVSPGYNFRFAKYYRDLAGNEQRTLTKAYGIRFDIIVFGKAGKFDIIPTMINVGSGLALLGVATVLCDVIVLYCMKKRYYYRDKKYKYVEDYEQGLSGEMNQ
Description: co-IP; anti-P2X4 antibody (Alomone APR-002) immobilised on amine-reactive resin beads (Pierce Co-IP Kit), incubated with native mouse bladder lysate (wild type and P2X4-/-); bound (IP) and non-bound (FT) fractions blotted for P2X1, P2X4 and Nt5e.

Assay [2] addresses T2, P2X1 receptor (mouse (endogenous in mouse bladder)) (UniProt P51576).
T2 sequence: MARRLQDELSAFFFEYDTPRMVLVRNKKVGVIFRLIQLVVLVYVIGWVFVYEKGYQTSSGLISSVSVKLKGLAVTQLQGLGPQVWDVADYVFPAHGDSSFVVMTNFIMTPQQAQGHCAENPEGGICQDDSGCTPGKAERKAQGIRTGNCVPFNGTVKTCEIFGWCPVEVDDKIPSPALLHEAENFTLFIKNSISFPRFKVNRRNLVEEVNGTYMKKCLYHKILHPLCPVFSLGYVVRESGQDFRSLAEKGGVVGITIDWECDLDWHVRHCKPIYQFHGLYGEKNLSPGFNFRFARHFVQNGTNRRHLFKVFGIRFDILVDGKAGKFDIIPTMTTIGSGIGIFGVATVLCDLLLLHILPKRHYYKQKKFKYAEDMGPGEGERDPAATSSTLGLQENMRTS
Nature of the assay: co-IP; anti-P2X1 antibody (Alomone APR-001) immobilised on amine-reactive resin beads (Pierce Co-IP Kit), incubated with native mouse bladder lysate (wild type and P2X4-/-); bound (IP) and non-bound (FT) fractions blotted for P2X1, P2X4 and Nt5e.

B1: P2X1 receptor (receptor, UniProt P51576 1-399)
chain: MARRLQDELSAFFFEYDTPRMVLVRNKKVGVIFRLIQLVVLVYVIGWVFVYEKGYQTSSGLISSVSVKLKGLAVTQLQGLGPQVWDVADYVFPAHGDSSFVVMTNFIMTPQQAQGHCAENPEGGICQDDSGCTPGKAERKAQGIRTGNCVPFNGTVKTCEIFGWCPVEVDDKIPSPALLHEAENFTLFIKNSISFPRFKVNRRNLVEEVNGTYMKKCLYHKILHPLCPVFSLGYVVRESGQDFRSLAEKGGVVGITIDWECDLDWHVRHCKPIYQFHGLYGEKNLSPGFNFRFARHFVQNGTNRRHLFKVFGIRFDILVDGKAGKFDIIPTMTTIGSGIGIFGVATVLCDLLLLHILPKRHYYKQKKFKYAEDMGPGEGERDPAATSSTLGLQENMRTS
As for B1, in assay [1], the binding result is “no binding”.

B2: P2X4 receptor (receptor, UniProt Q9JJX6 1-388)
chain: MAGCCSVLGSFLFEYDTPRIVLIRSRKVGLMNRVVQLLILAYVIGWVFVWEKGYQETDSVVSSVTTKAKGVAVTNTSQLGFRIWDVADYVVPAQEENSLFIMTNMIVTVNQTQGTCPEIPDKTSICDSDANCTLGSSDTHSSGIGTGRCVPFNASVKTCEVAAWCPVENDAGVPTPAFLKAAENFTLLVKNNIWYPKFNFSKRNILPNITTSYLKSCIYNARTDPFCPIFRLGQIVADAGHSFQEMAVEGGIMGIQIKWDCNLDRAASHCLPRYSFRRLDTRDLEHNVSPGYNFRFAKYYRDLAGNEQRTLTKAYGIRFDIIVFGKAGKFDIIPTMINVGSGLALLGVATVLCDVIVLYCMKKRYYYRDKKYKYVEDYEQGLSGEMNQ
As to B2, the binding result in assay [2] was “no binding”.

B3: 5′-nucleotidase (Nt5e) (enzyme, UniProt Q61503 29-551)
chain: WELTILHTNDVHSRLEQTSDDSTKCLNASLCVGGVARLFTKVQQIRKEEPNVLFLDAGDQYQGTIWFTVYKGLEVAHFMNILGYDAMALGNHEFDNGVEGLIDPLLRNVKFPILSANIKARGPLAHQISGLFLPSKVLSVGGEVVGIVGYTSKETPFLSNPGTNLVFEDEISALQPEVDKLKTLNVNKIIALGHSGFEMDKLIAQKVRGVDIVVGGHSNTFLYTGNPPSKEVPAGKYPFIVTADDGRQVPVVQAYAFGKYLGYLKVEFDDKGNVITSYGNPILLNSSIPEDATIKADINQWRIKLDNYSTQELGRTIVYLDGSTQTCRFRECNMGNLICDAMINNNLRHPDEMFWNHVSMCIVNGGGIRSPIDEKNNGTITWENLAAVLPFGGTFDLVQLKGSTLKKAFEHSVHRYGQSTGEFLQVGGIHVVYDINRKPWNRVVQLEVLCTKCRVPIYEPLEMDKVYKVTLPSYLANGGDGFQMIKDELLKHDSGDQDISVVSEYISKMKVVYPAVEGRIKFS
As to B3, the binding entry in assay [2] and in assay [1] was “no binding” in each case.

The record behind these values is paper PMC5789870.
